{
  "source": "patent US6780978B2",
  "about": "“Fluorescence-activating antisera and IgG fraction therefrom” (Hamamatsu Photonics, K.K., priority 1998, dated 2004)",
  "test_system": "IgG fraction derived from Guinea-pig 1",
  "experiment": "Fluorescence of Malachite Green dilutions mixed with the IgG fraction",
  "type": "binding",
  "procedure": "A series of dilutions of Malachite Green in PBS solutions are prepared by adding to the solutions, the IgG fraction according to the invention which has been derived from Guinea-pig 1 in certain amounts (with the final concentration being 0.2 μM), and by adjusting concentrations of the dye within the range of 0-12 nM.\nFluorescence of these dilutions is measured with a Hitachi Model 850 fluorescence spectrophotometer under the following conditions: in a quartz cell of optical path length of 1.0 cm at the excitation side; an excitation wavelength of 617 nm; an emission wavelength of 650 nm; a band-pass width of 5 nm at both excitation and emission sides; High gain of a photomultiplier; a time constant of 1.5 sec; and a fluorescence integration time of 30 sec. Thus, a concentration-fluorescence intensity curve is prepared (See FIG. 5).\nThe fluorescence intensity is expressed as output values (i.e., arbitrary, relative units) of the fluorescence spectrophotometer.",
  "data": [
    {"smiles": "CN(C)c1ccc(C(=C2C=CC(=[N+](C)C)C=C2)c2ccccc2)cc1", "note": "[Malachite Green]", "values": [
      {"measurement": "sensitivity relative to the absorbance measurement", "setting": "40 nM/0.12 nM", "value": "about 300 times"},
      {"measurement": "concentration range of linear correlation between fluorescence intensities and concentrations", "setting": "with IgG fraction 0.2 μM", "value": "0.12 to 12", "unit": "nM"},
      {"measurement": "lowest concentration detected by fluorescence measurement using the antibody", "setting": "with IgG fraction 0.2 μM", "value": 0.12, "unit": "nM"}
    ]}
  ]
}
